Binding data for 1 molecule are collected here from PMC10968678.

Sequences of proteins named here, by UniProt entry; tags and fusion partners are left off.
UniProt Q09472: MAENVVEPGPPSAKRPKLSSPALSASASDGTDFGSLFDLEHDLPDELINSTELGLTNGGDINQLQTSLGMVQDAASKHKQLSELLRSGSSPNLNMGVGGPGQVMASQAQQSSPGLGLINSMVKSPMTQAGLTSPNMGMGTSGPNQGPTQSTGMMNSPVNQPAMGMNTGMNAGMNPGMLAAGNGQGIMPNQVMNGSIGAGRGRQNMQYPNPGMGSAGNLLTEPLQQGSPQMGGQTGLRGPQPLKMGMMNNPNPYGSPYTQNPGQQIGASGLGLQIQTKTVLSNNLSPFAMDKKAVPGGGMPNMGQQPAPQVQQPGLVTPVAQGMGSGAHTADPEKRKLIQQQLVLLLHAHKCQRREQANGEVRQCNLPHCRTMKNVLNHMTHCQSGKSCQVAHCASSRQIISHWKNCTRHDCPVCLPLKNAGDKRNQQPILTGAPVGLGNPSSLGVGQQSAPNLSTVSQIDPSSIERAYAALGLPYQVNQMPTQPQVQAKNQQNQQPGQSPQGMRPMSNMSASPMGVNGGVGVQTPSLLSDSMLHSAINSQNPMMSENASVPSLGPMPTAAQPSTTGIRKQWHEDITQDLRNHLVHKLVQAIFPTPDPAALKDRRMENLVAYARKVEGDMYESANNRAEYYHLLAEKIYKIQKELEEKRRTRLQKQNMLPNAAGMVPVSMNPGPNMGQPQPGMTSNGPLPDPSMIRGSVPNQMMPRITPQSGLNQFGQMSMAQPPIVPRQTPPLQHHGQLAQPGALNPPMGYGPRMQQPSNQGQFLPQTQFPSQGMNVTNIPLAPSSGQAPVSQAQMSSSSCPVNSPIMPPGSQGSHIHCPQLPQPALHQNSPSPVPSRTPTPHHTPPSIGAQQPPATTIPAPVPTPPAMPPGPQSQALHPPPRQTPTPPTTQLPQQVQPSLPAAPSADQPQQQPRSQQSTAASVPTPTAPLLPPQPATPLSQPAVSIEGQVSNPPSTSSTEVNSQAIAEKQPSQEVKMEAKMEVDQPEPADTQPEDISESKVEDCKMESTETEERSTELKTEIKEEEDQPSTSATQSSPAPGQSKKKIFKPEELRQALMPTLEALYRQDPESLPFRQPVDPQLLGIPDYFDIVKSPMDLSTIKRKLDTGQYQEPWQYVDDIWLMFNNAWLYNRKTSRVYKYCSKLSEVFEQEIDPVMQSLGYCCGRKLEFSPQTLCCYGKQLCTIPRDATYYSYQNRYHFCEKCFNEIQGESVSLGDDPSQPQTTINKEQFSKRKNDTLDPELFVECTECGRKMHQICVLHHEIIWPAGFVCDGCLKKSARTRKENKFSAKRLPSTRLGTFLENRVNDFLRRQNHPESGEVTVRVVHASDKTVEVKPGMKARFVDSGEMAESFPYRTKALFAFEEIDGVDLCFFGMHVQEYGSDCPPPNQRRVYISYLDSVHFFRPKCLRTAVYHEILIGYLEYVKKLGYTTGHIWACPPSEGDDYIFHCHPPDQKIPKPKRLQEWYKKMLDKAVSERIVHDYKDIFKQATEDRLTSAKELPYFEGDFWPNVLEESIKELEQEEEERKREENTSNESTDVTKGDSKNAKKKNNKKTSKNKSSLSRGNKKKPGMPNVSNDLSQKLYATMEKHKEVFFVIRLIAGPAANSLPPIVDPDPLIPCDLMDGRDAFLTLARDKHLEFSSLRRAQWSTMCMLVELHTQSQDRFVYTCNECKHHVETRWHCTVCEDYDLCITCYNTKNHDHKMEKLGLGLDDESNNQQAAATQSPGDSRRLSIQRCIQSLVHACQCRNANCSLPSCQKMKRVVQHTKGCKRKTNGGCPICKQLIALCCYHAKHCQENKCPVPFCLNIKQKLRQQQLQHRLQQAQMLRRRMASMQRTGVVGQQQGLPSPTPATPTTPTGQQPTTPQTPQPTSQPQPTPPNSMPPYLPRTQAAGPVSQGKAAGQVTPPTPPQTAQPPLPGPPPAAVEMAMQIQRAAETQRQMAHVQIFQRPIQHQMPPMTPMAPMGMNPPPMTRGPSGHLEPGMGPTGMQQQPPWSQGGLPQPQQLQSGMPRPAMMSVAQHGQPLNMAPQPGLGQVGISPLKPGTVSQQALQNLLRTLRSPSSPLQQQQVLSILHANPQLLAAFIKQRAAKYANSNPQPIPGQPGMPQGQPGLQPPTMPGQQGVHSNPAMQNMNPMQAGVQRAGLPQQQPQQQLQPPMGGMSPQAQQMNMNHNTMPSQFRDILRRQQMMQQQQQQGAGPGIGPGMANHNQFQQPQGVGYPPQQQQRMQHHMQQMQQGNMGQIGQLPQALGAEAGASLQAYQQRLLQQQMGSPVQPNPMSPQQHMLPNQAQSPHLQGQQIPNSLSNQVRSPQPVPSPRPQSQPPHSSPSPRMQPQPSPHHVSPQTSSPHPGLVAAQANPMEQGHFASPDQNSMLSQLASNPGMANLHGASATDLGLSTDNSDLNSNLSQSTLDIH

In this assay the target is EP300 (human (endogenous in HepG2)) (UniProt Q09472). Briefly: co-IP; cell extract (Pierce IP lysis buffer) incubated with the corresponding antibody overnight at 4 C, Protein A&G beads 4 h at 4 C, Western blot. For orientation: Immunoblotting shows a protein as a band on a membrane.

Results are given in words; binding and its absence hold for the method and conditions named. In cells and extracts the contact can be indirect. Some results given as binding are weak or reduced against the parent protein; the word gives no strength. Where a sequence is shown, tags or fusion partners need not be part of it.

B1: Glucosylceramidase Beta 3 (GBA3) (enzyme, UniProt Q9H227 1-469)
chain: MAFPAGFGWAAATAAYQVEGGWDADGKGPCVWDTFTHQGGERVFKNQTGDVACGSYTLWEEDLKCIKQLGLTHYRFSLSWSRLLPDGTTGFINQKGIDYYNKIIDDLLKNGVTPIVTLYHFDLPQTLEDQGGWLSEAIIESFDKYAQFCFSTFGDRVKQWITINEANVLSVMSYDLGMFPPGIPHFGTGGYQAAHNLIKAHARSWHSYDSLFRKKQKGMVSLSLFAVWLEPADPNSVSDQEAAKRAITFHLDLFAKPIFIDGDYPEVVKSQIASMSQKQGYPSSRLPEFTEEEKKMIKGTADFFAVQYYTTRLIKYQENKKGELGILQDAEIEFFPDPSWKNVDWIYVVPWGVCKLLKYIKDTYNNPVIYITENGFPQSDPAPLDDTQRWEYFRQTFQELFKAIQLDKVNLQVYCAWSLLDNFEWNQGYSSRFGLFHVDFEDPARPRVPYTSAKEYAKIIRNNGLEAHL
In the case of B1, the binding result is listed as “binds”.
